# Assay results published in PubChem BioAssay AID662 (National Center for Advancing Translational Sciences (NCATS), 2007).
# The other results are listed elsewhere or left out. Further columns of the screen follow, without active or inactive calls. The list favours compounds with an active or inconclusive main result. The note in brackets gives the kind of curve behind each potency; many fits are weak. Numbered stars: 1 amine (or outer) side, 2 acyl side, 3 side chain; on linkers, the order of the positions; unused ones are H or OH. Bridge positions count the residues as written; N and C are the ends. Square brackets hold non-standard residues; d marks the D form. Peptide text beside a SMILES is read from it. I, II: the chains in the order shown. Actinocin(9to1) = Cc1c2oc3c(C)ccc(C(=O)[*:1])c3nc-2c(C(=O)[*:2])c(N)c1=O; aThr = C[C@H](O)[C@H](N)C(=O)O; NMeV = CN[C@H](C(=O)O)C(C)C; Sar = CNCC(=O)O
# Assay: Cell signaling CRE-BLA (Fsk stim)
# Settings: CHO CRE-bla reporter (cAMP response element driving beta-lactamase), forskolin EC10, beta-lactamase ratio; measured here: 460 nm blue channel
# How it was run: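 Modulation of forskolin signalling: compounds in titration series added with EC10 NKH 477 to CHO cells carrying a CRE-driven beta-lactamase reporter, 3 h, 37C. CCF4 FRET ratio (460/530 nm, ex 405 nm) gives %activity and AC50.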
row,SMILES,AC50
1,COc1ccc(OC)c2c(=S)c3ccccc3[nH]c12,"15.8 µM [rising, partial curve]"
2,CCOc1ccccc1NC1c2ccccc2C(=O)N1c1cccnc1 (stereo not drawn),"25.1 µM [falling, single point]"
3,Cc1cc(NC(=O)CCN2C(=O)C3C4C=CC(C4)C3C2=O)c2ccccc2n1 (stereo not drawn),"1.26 µM [falling, full curve]"
4,"Cc1c2oc3c(C)ccc(C(=O)N[C@@H]4C(=O)N[C@@H](C(C)C)C(=O)N5CCC[C@@H]5C(=O)N(C)CC(=O)N(C)[C@@H](C(C)C)C(=O)O[C@H]4C)c3nc-2c(C(=O)N[C@@H]2C(=O)N[C@@H](C(C)C)C(=O)N3CCC[C@@H]3C(=O)N(C)CC(=O)N(C)[C@@H](C(C)C)C(=O)O[C@H]2C)c(N)c1=O (I: [aThr]V[dP][Sar][NMeV] / II: [aThr]V[dP][Sar][NMeV]; ester I:1-I:C, II:1-II:C; linker I:N-II:N via Actinocin(9to1))","0.1 µM [falling, full curve]"
5,CCc1ccc(NC(=O)CSc2nnc(Cc3cccn3C)n2-c2ccc(OC)cc2)cc1,"10 µM [falling, partial curve]"
6,Cc1c(C(=O)O)[nH]c2c1C(=O)CC(c1ccccc1)C2 (stereo not drawn),"10 µM [rising, single point]"
7,CCc1ccc(NC(=O)Cn2c(SC)nc3ccccc32)cc1,"0.00398 µM [falling, full curve, poor fit]"
8,O=C(c1ccccc1)c1nc[nH]c1C(=O)Nc1ccccc1,"10 µM [rising, partial curve]"
9,CC(C)OC(=O)c1cccnc1SCc1cc(=O)n2ccccc2n1,"10 µM [rising, partial curve]"
10,COC(C)(C)[C@]12CC(O)(C(C)C)ON1[C@H]1CCCCC1N2O (stereo partly drawn),"25.1 µM [falling, single point]"
11,CCC(C)n1nccc1NC(=O)C(C)OC(=O)c1cc2ccccc2[nH]1 (stereo not drawn),"3.98 µM [falling, partial curve]"
12,CCOC(=O)N1CCC(N2CC34C=CC(O3)C(C(=O)Nc3ccc(OCC)cc3)C4C2=O)CC1 (stereo not drawn),"10 µM [rising, single point]"
13,COC(=O)c1ccccc1NC(=O)COC(C)=O,"7.94 µM [rising, partial curve, poor fit]"
14,O=c1[nH]c2ccsc2c(=O)n1-c1ccc(F)cc1,"0.398 µM [rising, partial curve]"
15,Cc1ccc(-n2ncc(C#N)c2/N=C/N2CCOCC2)cc1,"3.16 µM [rising, full curve, poor fit]"
16,CCCOc1ccc(N2C(=O)CC(N3CCCC(C(=O)N4CCCC4)C3)C2=O)cc1 (stereo not drawn),"0.00316 µM [falling, full curve, poor fit]"
17,Cc1nnc(NC(=O)C2(c3ccccc3)CCOCC2)s1,"10 µM [rising, partial curve]"
18,CCOc1ccc(C2=Nn3c(nnc3-c3ccccc3)SC2)cc1Cl,"0.1 µM [rising, full curve, poor fit]"
19,CCCc1ccc(C(C)NC(=O)c2cnccn2)cc1 (stereo not drawn),"0.1 µM [falling, partial curve, poor fit]"
20,Cn1c(=O)c2c(nc(NCc3ccco3)n2C)n(C)c1=O,"25.1 µM [rising, single point]"
21,COc1ccccc1C(=O)NCCn1cc(SCC(=O)Nc2cc(C)on2)c2ccccc21,"1.58 µM [rising, partial curve]"

row,SMILES,AC50
1,Cc1cc(=O)[nH]c(SCc2nc3ncccn3c2Br)n1,"3.98 µM [falling, single point]"
2,COc1ccc(Nc2nnc(Cc3ccc(Cl)cc3)c(=O)[nH]2)c(OC)c1,"0.1 µM [falling, partial curve, poor fit]"
3,COC(=O)Cc1cc(=O)n(-c2nc3ccccc3[nH]2)[nH]1,"2 µM [falling, single point]"
4,Nc1nc(OCc2ccccc2)c2[nH]cnc2n1,"25.1 µM [rising, partial curve]"
5,O=C(O)C1Nc2c(O)cccc2C2C=CCC12 (stereo not drawn),"15.8 µM [falling, partial curve]"
6,CCOC(=O)CCC(=O)Nc1ccccc1C(N)=O,"0.00316 µM [falling, full curve, poor fit]"
7,COc1cccc(Cn2c(=O)c(-c3cc(F)cc(F)c3)nc3cncnc32)c1,"7.94 µM [rising, partial curve]"
8,O=C(CCS(=O)(=O)c1cccc2nonc12)NCCc1ccccc1,"25.1 µM [falling, partial curve, poor fit]"
9,CCCn1c(=S)[nH]c2cc(C(=O)N3CCN(c4ccccc4OC)CC3)ccc2c1=O,"2.51 µM [rising, single point]"
10,Cn1c(=O)[nH]c(=O)c2c1nc(Sc1nc3ccccc3s1)n2Cc1ccccc1,"10 µM [rising, single point]"
11,COc1nc(Nc2nc3ccccc3c(=O)[nH]2)nc2ccc(C)cc12,"0.794 µM [rising, partial curve]"
12,CC(C)(C)CC(=O)N1CCC(c2nc3c(nnn3Cc3c(F)cccc3Cl)c(=O)[nH]2)CC1,"15.8 µM [rising, partial curve]"
13,COc1ccc(CC(=O)OCC(=O)Nc2c(C)n(C)n(-c3ccccc3)c2=O)cc1,"25.1 µM [rising, single point]"
14,C[C@@H](CCC[C@@H]1SC[C@H]2NC(=O)N[C@H]12)C(=O)O,"0.251 µM [rising, single point]"
15,Cc1cc(-c2nc3ncccc3o2)ccc1N,"12.6 µM [rising, single point]"
16,Cc1ccc(-c2csc3nnc(SCC(=O)Nc4nsc(-c5ccccc5)n4)n23)cc1,"6.31 µM [rising, partial curve]"
17,CC1Cc2nc(SCC(=O)OCc3ccccc3)n(C)c(=O)c2S1 (stereo not drawn),"12.6 µM [rising, single point]"
18,CCOCCCNC(=O)C1c2ccccc2C(=O)N2CCc3ccccc3C12 (stereo not drawn),"20 µM [rising, partial curve]"
19,CCc1nnc(NCC(=O)N2CCc3ccccc32)s1,"5.01 µM [falling, partial curve]"
20,N#Cc1cc2c(=O)n3ccccc3nc2n(Cc2cccnc2)c1=O,"1.26 µM [rising, partial curve]"
21,O=C(Nc1cccc(F)c1)N1CCCC2(CCN(C(=O)c3ccncc3)CC2)C1,"0.01 µM [rising, full curve, poor fit]"

# Exported with tabs: 4 of the compounds above
row	SMILES	AC50
11	CCC(C)n1nccc1NC(=O)C(C)OC(=O)c1cc2ccccc2[nH]1 (stereo not drawn)	3.98 µM [falling, partial curve]
20	Cn1c(=O)c2c(nc(NCc3ccco3)n2C)n(C)c1=O	25.1 µM [rising, single point]
1	Cc1cc(=O)[nH]c(SCc2nc3ncccn3c2Br)n1	3.98 µM [falling, single point]
7	COc1cccc(Cn2c(=O)c(-c3cc(F)cc(F)c3)nc3cncnc32)c1	7.94 µM [rising, partial curve]

# Continued.

row,SMILES,AC50
1,CCn1cc(C(=O)NCc2cccnc2)c2cc(OC)c(OC)cc2c1=O,"7.94 µM [rising, partial curve]"
2,CCOc1ccc(NC(=O)CCNS(=O)(=O)c2ccc3c(c2)c(=O)n(C)c(=O)n3C)cc1,"0.0501 µM [rising, full curve, poor fit]"
3,CC(C)(C)NC1=CC(=O)OC12CCCCC2,"1.58 µM [rising, partial curve]"
4,COc1ccc(-c2nn(-c3ccccc3)cc2C(=O)Nc2nc(CC(C)=O)ns2)cc1,"7.94 µM [rising, partial curve]"
5,C=CCN1C(=O)CSc2ccc(C(=O)OCC)cc21,"10 µM [rising, single point]"
6,CCCCN(C)C(=O)c1oc2ccc(S(=O)(=O)N3CCCCCC3)cc2c1C,"25.1 µM [rising, single point]"
7,COc1ccc(C)cc1NC(=O)CN1CCN(S(=O)(=O)c2ccc(C(C)C)cc2)CC1,"1.26 µM [rising, full curve]"
8,Cc1cc(NC(=O)CSc2ccc(-c3nc4cc(C)c(C)cc4[nH]3)cn2)no1,"12.6 µM [rising, partial curve]"
9,COc1ccc(-c2nnn(CC(=O)N(CC(=O)NC3CCCC3)c3cccc(C)c3)n2)cc1OC,"12.6 µM [rising, partial curve]"
10,Cc1nc2cc(N3CCOCC3)c(NC(=O)C3CC3)cc2c(=O)n1Cc1ccccc1,"10 µM [rising, partial curve]"
11,N=C(N)SCCc1ccc(OCc2ccc([N+](=O)[O-])cc2)cc1,"0.00501 µM [rising, full curve, poor fit]"
12,COc1ccc(-n2c(SCC(=O)Nc3nccs3)nc3c(c2=O)SC(C)C3)cc1 (stereo not drawn),"12.6 µM [rising, single point]"
13,O=c1oc2c(CN3CCCCC3)c(O)ccc2cc1-c1nc2ccccc2[nH]1,"12.6 µM [rising, partial curve]"
14,CCC(=O)N1CCCc2cc(S(=O)(=O)N3CCN(c4ccccc4F)CC3)ccc21,"15.8 µM [falling, partial curve]"
15,CCCn1c(SCC(=O)Nc2nc3c(s2)CCCC3)nc2c1c(=O)n(C)c(=O)n2C,"5.01 µM [rising, partial curve]"
16,CCOC(=O)c1cn(CC)c2cc(N3CCCCC3)c(F)cc2c1=O,"15.8 µM [rising, single point]"
17,COC(=O)Nc1nc2ccc(C(=O)c3ccccc3)cc2[nH]1,"10 µM [rising, partial curve]"
18,CC(CC(=O)NC1CCSC1=O)c1ccccc1 (stereo not drawn),"0.631 µM [rising, full curve]"
19,COc1cc2c(cc1OC)-c1cc(N3CCCc4ccccc43)nc(=O)n1CC2,"0.2 µM [rising, full curve]"
20,CCN(CC)S(=O)(=O)c1ccc(Cl)c(C(=O)NCC2CCCO2)c1 (stereo not drawn),"0.794 µM [falling, partial curve]"
21,O=C(CCCCCN1C(=O)c2ccccc2C1=O)Nc1ccc(S(=O)(=O)N2CCCCC2)cc1,"6.31 µM [falling, partial curve]"
